Data from article PMC7906818.
These are yes or no findings as the source states them, for the method shown. Binding seen in cells or lysates may run through a third protein. Some entries that bind do so weakly or less than the wild type.

Tests used:
[1] = biological target: T1, General control of amino acid synthesis 5-like 1 (human (endogenous in HK-2)) (UniProt P78537); test: co-IP; 1 mg cell lysate of TECs incubated with 10 ug antibody and 10 ul protein A/G resin at 4 C overnight; eluted and analysed by western blotting
T1 sequence: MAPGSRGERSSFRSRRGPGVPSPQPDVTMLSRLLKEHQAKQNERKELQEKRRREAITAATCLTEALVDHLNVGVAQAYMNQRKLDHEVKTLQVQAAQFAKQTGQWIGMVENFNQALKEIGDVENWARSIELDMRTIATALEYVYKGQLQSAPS

[2] = biological target: T1, General control of amino acid synthesis 5-like 1 (human (endogenous in HK-2)); test: proximity ligation; in situ PLA (Duolink) in TECs with mouse anti-GCN5L1 and anti-MnSOD antibodies; fluorescence microscopy

B1: manganese superoxide dismutase (enzyme, UniProt P04179 25-222)
chain: KHSLPDLPYDYGALEPHINAQIMQLHHSKHHAAYVNNLNVTEEKYQEALAKGDVTAQIALQPALKFNGGGHINHSIFWTNLSPNGGGEPKGELLEAIKRDFGSFDKFKEKLTAASVGVQGSGWGWLGFNKERGHLQIAACPNQDPLQGTTGLIPLLGIDVWEHAYYLQYKNVRPDYLKAIWNVINWENVTERYMACKK
In the case of B1, the binding [1] is reported as “binds” and the binding [2] is reported as “binds”.
